Laboratory results: article PMC8744257
These are yes or no findings as the source states them, for the method shown. Binding seen in cells or lysates may run through a third protein. Here binding means that the protein was enriched with, or labelled near, the bait; the list need not be complete. Sequences can lack the tags named with a protein.

Key:
[1] = target: T1, human CLUH fused to TurboID in N-terminal (TurboID-CLUH) (human) (UniProt O75153); assay: proximity labelling; TurboID in HCT116 stably expressing TurboID-CLUH, control TurboID-GFP; 30 min and 16 h, 50 μM biotin; streptavidin beads; LC-MS/MS
T1 sequence: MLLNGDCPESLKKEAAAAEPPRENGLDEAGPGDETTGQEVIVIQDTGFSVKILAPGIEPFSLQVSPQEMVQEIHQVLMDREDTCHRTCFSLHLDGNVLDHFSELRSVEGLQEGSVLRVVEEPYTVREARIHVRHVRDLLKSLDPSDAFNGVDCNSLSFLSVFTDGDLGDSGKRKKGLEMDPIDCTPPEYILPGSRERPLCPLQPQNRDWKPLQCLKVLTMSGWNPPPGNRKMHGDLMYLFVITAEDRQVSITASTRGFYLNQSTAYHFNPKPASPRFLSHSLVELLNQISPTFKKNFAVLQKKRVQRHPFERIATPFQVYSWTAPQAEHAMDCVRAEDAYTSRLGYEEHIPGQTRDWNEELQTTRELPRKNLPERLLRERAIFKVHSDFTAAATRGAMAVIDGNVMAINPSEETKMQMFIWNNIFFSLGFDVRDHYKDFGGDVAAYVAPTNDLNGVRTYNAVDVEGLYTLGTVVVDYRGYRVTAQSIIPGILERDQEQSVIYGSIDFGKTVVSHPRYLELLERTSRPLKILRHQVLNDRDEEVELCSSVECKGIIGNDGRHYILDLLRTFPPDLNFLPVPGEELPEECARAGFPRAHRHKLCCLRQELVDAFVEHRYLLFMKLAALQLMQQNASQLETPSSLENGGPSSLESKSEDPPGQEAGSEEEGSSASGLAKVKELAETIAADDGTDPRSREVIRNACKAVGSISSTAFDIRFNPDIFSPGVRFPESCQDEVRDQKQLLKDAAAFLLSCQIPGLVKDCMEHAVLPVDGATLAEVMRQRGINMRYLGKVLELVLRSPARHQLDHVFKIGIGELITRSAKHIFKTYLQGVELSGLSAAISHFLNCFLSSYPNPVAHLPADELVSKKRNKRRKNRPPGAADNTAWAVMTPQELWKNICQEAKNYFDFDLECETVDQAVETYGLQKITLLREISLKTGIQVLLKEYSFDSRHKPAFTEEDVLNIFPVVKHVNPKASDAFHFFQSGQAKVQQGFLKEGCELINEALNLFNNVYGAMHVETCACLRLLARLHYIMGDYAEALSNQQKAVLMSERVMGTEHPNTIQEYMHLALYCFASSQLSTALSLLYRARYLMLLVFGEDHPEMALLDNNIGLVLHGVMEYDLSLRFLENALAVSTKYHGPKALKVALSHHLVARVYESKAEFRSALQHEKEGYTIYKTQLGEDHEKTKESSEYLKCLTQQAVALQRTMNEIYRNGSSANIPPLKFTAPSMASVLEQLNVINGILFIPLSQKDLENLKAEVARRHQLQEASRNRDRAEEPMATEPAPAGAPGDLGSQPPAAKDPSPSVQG

[2] = target: T2, mouse CLUH (mCLUH) protein tagged with a triple HA epitope (3xHA) (mouse) (UniProt Q5SW19); assay: affinity purification with mass spectrometry; anti-HA-coupled beads on extracts of HCT116 stably expressing 3xHA-mCLUH; wild-type cells as IP mock; LC-MS/MS, three replicates, spectral counting, FC 2 and 10% FDR
T2 sequence: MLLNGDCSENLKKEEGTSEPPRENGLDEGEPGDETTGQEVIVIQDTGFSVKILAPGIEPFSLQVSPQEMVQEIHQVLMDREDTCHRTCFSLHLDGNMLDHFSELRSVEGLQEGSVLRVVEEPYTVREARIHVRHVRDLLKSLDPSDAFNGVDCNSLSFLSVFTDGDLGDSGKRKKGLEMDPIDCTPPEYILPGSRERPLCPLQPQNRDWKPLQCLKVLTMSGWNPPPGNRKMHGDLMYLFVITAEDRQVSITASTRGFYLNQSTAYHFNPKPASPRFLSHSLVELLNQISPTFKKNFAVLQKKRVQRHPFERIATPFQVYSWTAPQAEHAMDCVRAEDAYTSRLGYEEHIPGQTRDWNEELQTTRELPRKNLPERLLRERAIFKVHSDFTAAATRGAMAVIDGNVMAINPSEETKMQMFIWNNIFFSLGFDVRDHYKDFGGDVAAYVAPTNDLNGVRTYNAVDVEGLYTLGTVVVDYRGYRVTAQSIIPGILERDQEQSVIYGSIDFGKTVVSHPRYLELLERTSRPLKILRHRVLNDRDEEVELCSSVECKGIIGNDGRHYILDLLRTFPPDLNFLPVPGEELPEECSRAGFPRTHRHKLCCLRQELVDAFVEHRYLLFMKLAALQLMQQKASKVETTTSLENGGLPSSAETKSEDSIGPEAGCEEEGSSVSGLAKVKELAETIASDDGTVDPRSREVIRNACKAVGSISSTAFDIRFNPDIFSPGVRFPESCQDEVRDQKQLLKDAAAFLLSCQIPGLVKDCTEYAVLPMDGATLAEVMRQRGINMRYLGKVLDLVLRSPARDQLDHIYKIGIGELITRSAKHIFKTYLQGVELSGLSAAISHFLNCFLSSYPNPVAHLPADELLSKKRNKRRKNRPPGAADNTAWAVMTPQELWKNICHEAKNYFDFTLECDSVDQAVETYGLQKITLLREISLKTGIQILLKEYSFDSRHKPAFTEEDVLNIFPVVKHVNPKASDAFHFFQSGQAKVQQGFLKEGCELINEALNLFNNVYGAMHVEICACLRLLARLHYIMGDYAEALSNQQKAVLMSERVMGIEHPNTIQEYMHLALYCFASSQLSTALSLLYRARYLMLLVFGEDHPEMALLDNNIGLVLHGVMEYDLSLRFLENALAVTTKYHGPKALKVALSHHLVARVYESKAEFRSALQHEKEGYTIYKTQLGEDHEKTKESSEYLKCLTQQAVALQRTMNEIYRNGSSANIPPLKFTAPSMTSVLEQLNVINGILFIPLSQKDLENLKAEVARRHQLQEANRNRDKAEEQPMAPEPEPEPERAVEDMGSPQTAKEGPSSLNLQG

[3] = target: T3, mouse CLUH (mCLUH) protein fused, in N-terminal, to a modified biotin ligase protein (BioID2-CLUH) (mouse) (UniProt Q5SW19); assay: proximity labelling; BioID in HCT116 stably expressing BioID2-mCLUH, control GFP-BioID2; 24 h, 50 μM biotin; streptavidin beads; LC-MS/MS, three replicates
T3 sequence: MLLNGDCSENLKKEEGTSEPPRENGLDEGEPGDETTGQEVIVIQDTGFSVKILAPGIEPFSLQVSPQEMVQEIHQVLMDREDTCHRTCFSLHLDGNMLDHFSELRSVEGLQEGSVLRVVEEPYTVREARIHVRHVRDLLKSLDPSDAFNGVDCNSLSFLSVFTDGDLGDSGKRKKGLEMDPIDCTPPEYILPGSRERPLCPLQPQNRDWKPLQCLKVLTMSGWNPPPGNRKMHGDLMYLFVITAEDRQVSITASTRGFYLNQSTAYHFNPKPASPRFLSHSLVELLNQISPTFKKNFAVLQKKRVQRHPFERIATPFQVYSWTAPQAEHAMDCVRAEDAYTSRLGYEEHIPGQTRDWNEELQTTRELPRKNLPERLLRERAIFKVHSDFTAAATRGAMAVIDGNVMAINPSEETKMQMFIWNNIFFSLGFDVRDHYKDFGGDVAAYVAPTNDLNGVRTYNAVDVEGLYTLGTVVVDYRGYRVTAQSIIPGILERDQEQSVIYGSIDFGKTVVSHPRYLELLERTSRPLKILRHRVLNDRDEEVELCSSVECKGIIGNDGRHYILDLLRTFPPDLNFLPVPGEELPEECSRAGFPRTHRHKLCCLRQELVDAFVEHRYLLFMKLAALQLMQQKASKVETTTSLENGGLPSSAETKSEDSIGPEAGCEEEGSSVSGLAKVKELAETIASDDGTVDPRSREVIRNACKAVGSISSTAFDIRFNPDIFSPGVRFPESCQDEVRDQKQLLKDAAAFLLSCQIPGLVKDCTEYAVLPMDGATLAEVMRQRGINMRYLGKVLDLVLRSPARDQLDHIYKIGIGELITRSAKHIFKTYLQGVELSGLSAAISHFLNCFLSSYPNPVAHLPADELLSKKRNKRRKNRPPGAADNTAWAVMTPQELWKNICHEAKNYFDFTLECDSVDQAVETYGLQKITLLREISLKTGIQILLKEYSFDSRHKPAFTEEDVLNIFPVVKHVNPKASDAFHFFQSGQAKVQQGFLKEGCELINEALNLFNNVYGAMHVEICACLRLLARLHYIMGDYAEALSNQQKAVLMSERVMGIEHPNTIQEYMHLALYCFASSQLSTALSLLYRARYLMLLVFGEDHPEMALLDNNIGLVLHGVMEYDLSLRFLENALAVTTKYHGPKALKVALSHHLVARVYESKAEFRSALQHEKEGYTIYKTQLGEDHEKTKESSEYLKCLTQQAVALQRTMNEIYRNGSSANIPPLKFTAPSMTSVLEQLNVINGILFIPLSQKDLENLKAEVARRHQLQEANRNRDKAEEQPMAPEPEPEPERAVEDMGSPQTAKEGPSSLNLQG

binding [1]: binds
binding [2]: binds
binding [3]: binds
B1: KNSTRN (endogenous, HCT116) (protein, UniProt Q9Y448 1-316)
chain: MAAPEAPPLDRVFRTTWLSTECDSHPLPPSYRKFLFETQAADLAGGTTVAAGNLLNESEKDCGQDRRAPGVQPCRLVTMTSVVKTVYSLQPPSALSGGQPADTQTRATSKSLLPVRSKEVDVSKQLHSGGPENDVTKITKLRRENGQMKATDTATRRNVRKGYKPLSKQKSEEELKDKNQLLEAVNKQLHQKLTETQGELKDLTQKVELLEKFRDNCLAILESKGLDPALGSETLASRQESTTDHMDSMLLLETLQEELKLFNETAKKQMEELQALKVKLEMKEERVRFLEQQTLCNNQVNDLTTALKEMEQLLEM
